# Values of other authors, collected in patent US8334298B2, “Treatment or prevention of ovarian hyperstimulation syndrome (OHSS) using a dopamine agonist” (Ferring International Center S.A., priority 2005, dated 2012).
# At least one structure is not confirmed: it was looked up by name or label, or the drawing left a doubt.
# Test system: patient with pituitary adenoma and OHSS
# Settings: bromocriptine 5 mg/day, daily; cited from earlier work
compound,measurement,value
CC(C)C[C@H]1C(=O)N2CCC[C@H]2[C@]2(O)O[C@](NC(=O)[C@@H]3C=C4c5cccc6[nH]c(Br)c(c56)C[C@H]4N(C)C3)(C(C)C)C(=O)N12 [bromocriptine],estradiol levels,reduced estradiol levels to within the normal range
same,ovarian size,normalized ovarian size
